Assay results reported in US10294487B2, “Methods and compositions involving ALS variants with native substrate preference” (E I DU PONT DE NEMOURS AND COMPANY, priority 2012, dated 2019).

Test system: transgenic soybean seeds
Assay: C17 fatty acids in seeds of transgenic soybean
Format: in vivo, Glycine max

B1: GM-ALS_P178A_W555L: highly resistant allele (HRA) double mutant of Glycine max ALS1: P→A at 178 and W→L at 555 (protein)
chain: MAATASRTTRFSSSSSHPTFPKRITRSTLPLSHQTLTKPNHALKIKCSISKPPTAAPFTKEAPTTEPFVSRFASGEPRKGADILVEALERQGVTTVFAYPGGASMEIHQALTRSAAIRNVLPRHEQGGVFAAEGYARSSGLPGVCIATSGPGATNLVSGLADALMDSVPVVAITGQVARRMIGTDAFQETPIVEVSRSITKHNYLILDVDDIPRVVAEAFFVATSGRPGPVLIDIPKDVQQQLAVPNWDEPVNLPGYLARLPRPPAEAQLEHIVRLIMEAQKPVLYVGGGSLNSSAELRRFVELTGIPVASTLMGLGTFPIGDEYSLQMLGMHGTVYANYAVDNSDLLLAFGVRFDDRVTGKLEAFASRAKIVHIDIDSAEIGKNKQAHVSVCADLKLALKGINMILEEKGVEGKFDLGGWREEINVQKHKFPLGYKTFQDAISPQHAIEVLDELTNGDAIVSTGVGQHQMWAAQFYKYKRPRQWLTSGGLGAMGFGLPAAIGAAVANPGAVVVDIDGDGSFIMNVQELATIRVENLPVKILLLNNQHLGMVVQLEDRFYKSNRAHTYLGDPSSESEIFPNMLKFADACGIPAARVTKKEELRAAIQRMLDTPGPYLLDVIVPHQEHVLPMIPSNGSFKDVITEGDGRTRY
modifications: ALS1 variant P178A W555L
- levels of C17 fatty acids (SAMS promoter, most events): only slightly elevated levels
- C17 FAs level relative to wild type plants (strong promoter SCP1, versus G. max elite or Jack germplasm): more than 10 ×
